Publication PMC12403488
These are yes or no findings as the source states them, for the method shown. Binding seen in cells or lysates may run through a third protein. Some binding calls cover weakened binding; strength is not graded here.

Key:
[1] = target: T1, stimulator of interferon gene (STING) (human (endogenous in HMC3)), Q86WV6; assay: co-IP; lysate of OGD/R-treated HMC3 cells in Native Lysis Buffer; anti-STING antibody or anti-IgG antibody conjugated to AminoLink Coupling Resin, 2 h; western blot; details: remark: other sources report otherwise
[2] = target: T1, stimulator of interferon gene (STING) …; assay: proximity ligation; Duolink In Situ; OGD/R-treated and control HMC3 cells, fixed with 4% PFA, permeabilised with 0.1% Triton X-100; STING antibody and RHBDF2 antibody; confocal microscope; details: remark: other sources report otherwise

binding [1]: binds | binding [2]: binds
B1: Rhomboid 5 homolog 2 (RHBDF2), Q6PJF5 1-856 (protein)
chain: MASADKNGGSVSSVSSSRLQSRKPPNLSITIPPPEKETQAPGEQDSMLPEGFQNRRLKKSQPRTWAAHTTACPPSFLPKRKNPAYLKSVSLQEPRSRWQESSEKRPGFRRQASLSQSIRKGAAQWFGVSGDWEGQRQQWQRRSLHHCSMRYGRLKASCQRDLELPSQEAPSFQGTESPKPCKMPKIVDPLARGRAFRHPEEMDRPHAPHPPLTPGVLSLTSFTSVRSGYSHLPRRKRMSVAHMSLQAAAALLKGRSVLDATGQRCRVVKRSFAFPSFLEEDVVDGADTFDSSFFSKEEMSSMPDDVFESPPLSASYFRGIPHSASPVSPDGVQIPLKEYGRAPVPGPRRGKRIASKVKHFAFDRKKRHYGLGVVGNWLNRSYRRSISSTVQRQLESFDSHRPYFTYWLTFVHVIITLLVICTYGIAPVGFAQHVTTQLVLRNKGVYESVKYIQQENFWVGPSSIDLIHLGAKFSPCIRKDGQIEQLVLRERDLERDSGCCVQNDHSGCIQTQRKDCSETLATFVKWQDDTGPPMDKSDLGQKRTSGAVCHQDPRTCEEPASSGAHIWPDDITKWPICTEQARSNHTGFLHMDCEIKGRPCCIGTKGSCEITTREYCEFMHGYFHEEATLCSQVHCLDKVCGLLPFLNPEVPDQFYRLWLSLFLHAGVVHCLVSVVFQMTILRDLEKLAGWHRIAIIFILSGITGNLASAIFLPYRAEVGPAGSQFGLLACLFVELFQSWPLLERPWKAFLNLSAIVLFLFICGLLPWIDNIAHIFGFLSGLLLAFAFLPYITFGTSDKYRKRALILVSLLAFAGLFAALVLWLYIYPINWPWIEHLTCFPFTSRFCEKYELDQVLH
